In this experiment the test system is TNF-α production. In words: LPS-induced TNF-α production in culture of mice peritoneal macrophage (ELISA). As to conditions: mouse peritoneal macrophages, at least five concentrations, range tested in parentheses, read-out: TNF-α Inhibition IC50. Format: cell-based. As to the method:
We initially investigated the capacity of our N-acylhydrazone derivatives 4a–g to inhibit TNF-α production in vitro [21]. The p38 MAPK inhibitor SB-203580 (1) was chosen as a standard. As depicted in Table 2, six NAH compounds 4a, 4b, 4c, 4d, 4f and 4g inhibited the in vitro LPS-induced production of TNF-α in cultured mouse peritoneal macrophages at a concentration of 10 µM.
BALBc mice were stimulated with thyoglicollate 3% (1 mL/mice; i.p.) and 3 days later the peritoneal cavity were washed with RPMI 1640 and the peritoneal macrophages were plated onto 96-wells plate (30.000 cells/well) for 1 hour at 37°C in an humidified 5% CO2 atmophere. Then, macrophages were incubated with the vehicle or compounds and 1 hour later stimulated with LPS (100 ng/mL) for 24 hour when the supernatants were collected to evaluate TNF-α production by ELISA kit (BD Bioscience).
On the technique in general: ELISA stands for enzyme-linked immunosorbent assay.

One may read the IC50 as the concentration at which inhibition is half-maximal. Turning to `C[S+]([O-])c1ccc(-c2nc(-c3ccncc3)c(-c3ccc(F)cc3)[nH]2)cc1` (stereo not shown) [SB-203580 (1), SB-203580, reference compound], the IC50 turned out to be 220 nM.
